Measured data: PubChem BioAssay AID504804 (Drosophila RNAi Screening Center, 2011)
Purpose: 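Knock-downs shielding fly cells from apoptosis caused by DNA damage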 (primary screen). System: Drosophila Kc cells. Reagent: long dsRNA against Drosophila genes, 0.5 µg dsRNA per well. Time to read-out: 96 h (48 h knock-down, then 48 h drug). Treatment: doxorubicin 5 µg/ml for 48 h, added 48 h after dsRNA. Measured: 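Luminescent ATP counts per replicate, not normalised, reflecting viable cells after 48 h dsRNA knock-down followed by 48 h of 5 µg/ml doxorubicin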. Reading the numbers: raw ATP luminescence: higher = more viable cells, protection from doxorubicin. Rule for the call: 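Active when both duplicate wells lie at least 2 SD above the plate mean and protection is confirmed by rescreening and independent dsRNAs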.
The screen tested about 19,000 reagents; below is a random part of those that have a named target and a result. Over the whole deposit, 47 (0.25%) were called active. 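Signals are raw, not normalised; exact z-scores behind calls not deposited; actives needed confirmation, so some wells reaching 2 SD are inactive.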 The numbers tell different reagents against one gene apart. A plus sign joins genes that one reagent is predicted to hit. No sequences are given here.

| Gene | dsRNA no. | raw ATP luminescence, replicate 1 | raw ATP luminescence, replicate 2 | activity call |
| --- | --- | --- | --- | --- |
| CG34426 (GeneID 5740622) | 1 | 67007 | 66487 | inactive |
| kn (GeneID 45318) | 1 | 72300 | 91017 | inactive |
| kn (GeneID 45318) | 2 | 76790 | 94383 | inactive |
| fau (GeneID 41291) | 1 | 62983 | 54183 | inactive |
| fau (GeneID 41291) | 2 | 69803 | 69563 | inactive |
| fau (GeneID 41291) | 3 | 57550 | 21890 | inactive |
| fau (GeneID 41291) | 4 | 54143 | 49603 | inactive |
| fau (GeneID 41291) | 5 | 64253 | 56117 | inactive |
| Spn43Ab (GeneID 45040) | 1 | 63400 | 77193 | inactive |
| AstA-R1 (GeneID 44126) | 1 | 2.69e5 | 2.57e5 | inactive |
| AstA-R1 (GeneID 44126) | 2 | 38070 | 47400 | inactive |
| bero (GeneID 35355) | 1 | 74987 | 56560 | inactive |
| VhaSFD (GeneID 34997) | 1 | 86870 | 61683 | inactive |
| Tcs6 + PIG-P | 1 | 1.71e5 | 2.02e5 | inactive |
| Tcs6 + PIG-P | 2 | 83010 | 80230 | inactive |
| ATP6 (retired record) (GeneID 192467) | 1 | 2.62e5 | 2.79e5 | inactive |
| TwdlV (GeneID 40537) | 1 | 69397 | 71193 | inactive |
| Rala (GeneID 31332) | 1 | 37190 | 43950 | inactive |
| ecd (GeneID 38291) | 1 | 57453 | 49600 | inactive |
| CG31454 (GeneID 318744) | 1 | 67103 | 58970 | inactive |
| Lcp2 (GeneID 35818) | 1 | 43923 | 77573 | inactive |
| CG7924 (GeneID 39574) | 1 | 19423 | 20397 | inactive |
| CG13843 (GeneID 42668) | 1 | 72260 | 69410 | inactive |
| Rab9Db + Rab9D + Rab9E | 1 | 1.73e5 | 2.08e5 | inactive |
| sc (GeneID 30982) | 1 | 33950 | 33740 | inactive |
| ZnT41F (GeneID 35513) | 1 | 60467 | 70810 | inactive |
| CG7992 (GeneID 32917) | 1 | 3.27e5 | 3.28e5 | inactive |
| CG17928 (GeneID 35009) | 1 | 80267 | 83290 | inactive |
| Treh (GeneID 45368) | 1 | 81383 | 66847 | inactive |
| thoc5 (GeneID 37810) | 1 | 92167 | 62523 | inactive |
| sip1 (GeneID 44238) | 1 | 28867 | 27893 | inactive |
| CG13532 (GeneID 37632) | 1 | 41943 | 45227 | inactive |
| vir (GeneID 47869) | 1 | 54777 | 65293 | inactive |
| CG1371 (GeneID 36053) | 1 | 88853 | 73260 | inactive |
| kek5 (GeneID 32930) | 1 | 3.11e5 | 3.03e5 | inactive |
| Liprin-alpha (GeneID 249072) | 1 | 1.07e5 | 1.03e5 | inactive |
| jp (GeneID 34274) | 1 | 78003 | 67937 | inactive |
| jp (GeneID 34274) | 2 | 20873 | 52837 | inactive |
| CG34024 (retired record) (GeneID 3885580) | 1 | 1.80e5 | 2.31e5 | inactive |
| wdp (GeneID 37548) | 1 | 73570 | 70093 | inactive |
| CG11655 (GeneID 32472) | 1 | 2.39e5 | 2.87e5 | inactive |
| Jhbp1 (GeneID 40613) | 1 | 49733 | 42847 | inactive |
| CG42525 (GeneID 8674097) | 1 | 1.39e5 | 1.45e5 | inactive |
| Os-C (GeneID 40942) | 1 | 63303 | 54097 | inactive |
| elg1 (GeneID 39770) | 1 | 18470 | 21647 | inactive |
| CG17658 (GeneID 37793) | 1 | 42280 | 51047 | inactive |
| Vtld + CG42529 | 1 | 74440 | 61413 | inactive |
| ng1 (GeneID 31300) | 1 | 43830 | 45170 | inactive |
| AANATL3 (GeneID 35285) | 1 | 57850 | 61247 | inactive |
| CG3085 (GeneID 37663) | 1 | 59923 | 63030 | inactive |
| CG34210 (GeneID 5740490) | 1 | 53330 | 50560 | inactive |
| CG6118 (GeneID 41884) | 1 | 27420 | 22380 | inactive |
| fru (GeneID 42226) | 1 | 17470 | 19370 | inactive |
| fru (GeneID 42226) | 2 | 67730 | 77010 | inactive |
| fru (GeneID 42226) | 3 | 66110 | 47310 | inactive |
| CG7963 (GeneID 41001) | 1 | 45087 | 54340 | inactive |
| CG2861 (GeneID 31414) | 1 | 52310 | 53780 | inactive |
| CG12133 (GeneID 36036) | 1 | 32993 | 1.03e5 | inactive |
| CG14082 (GeneID 40088) | 1 | 62077 | 67993 | inactive |
| Trs33 (GeneID 41866) | 1 | 98340 | 86920 | inactive |
| CG3199 (GeneID 41725) | 1 | 1.34e5 | 60820 | inactive |
| CG11670 (GeneID 41608) | 1 | 77820 | 70000 | inactive |
| CG6656 (GeneID 42576) | 1 | 42730 | 45180 | inactive |
| Cpr100A (GeneID 43657) | 1 | 52840 | 41630 | inactive |
| CG13972 (GeneID 43307) | 1 | 42160 | 52410 | inactive |
| CG17224 (GeneID 33510) | 1 | 19403 | 25290 | inactive |
| Dhx15 (GeneID 35654) | 1 | 59637 | 71157 | inactive |
| cass (GeneID 35053) | 1 | 71203 | 55630 | inactive |
| yellow-e (GeneID 41653) | 1 | 1.84e5 | 2.14e5 | inactive |
| yellow-e (GeneID 41653) | 2 | 83900 | 88200 | inactive |
| CG41099 (GeneID 3355072) | 1 | 3.61e5 | 3.15e5 | inactive |
| CG41099 (GeneID 3355072) | 2 | 3.31e5 | 2.23e5 | inactive |
| CG16813 (GeneID 34724) | 1 | 66310 | 82833 | inactive |
| NFAT (GeneID 32321) | 1 | 1.05e5 | 75357 | inactive |
| NFAT (GeneID 32321) | 2 | 3.33e5 | 2.91e5 | inactive |
| hdm (GeneID 31705) | 1 | 34830 | 41250 | inactive |
| GCC88 (GeneID 41350) | 1 | 58793 | 57167 | inactive |
| Uxt (GeneID 34893) | 1 | 71597 | 61563 | inactive |
| CheB42c (GeneID 2768715) | 1 | 52070 | 73057 | inactive |
| CG31145 (GeneID 42784) | 1 | 2.10e5 | 1.89e5 | inactive |
| CG31145 (GeneID 42784) | 2 | 54810 | 56770 | inactive |
| CG31145 (GeneID 42784) | 3 | 20550 | 20250 | inactive |
| CG31145 (GeneID 42784) | 4 | 55770 | 39440 | inactive |
| G9a (GeneID 30971) | 1 | 61390 | 44620 | inactive |
